# Some of the results follow.
# Amino acid sequences for entries named in this document (tags omitted). A change or cut given only in a name is not applied to a line headed by its entry.
# UniProt Q14847: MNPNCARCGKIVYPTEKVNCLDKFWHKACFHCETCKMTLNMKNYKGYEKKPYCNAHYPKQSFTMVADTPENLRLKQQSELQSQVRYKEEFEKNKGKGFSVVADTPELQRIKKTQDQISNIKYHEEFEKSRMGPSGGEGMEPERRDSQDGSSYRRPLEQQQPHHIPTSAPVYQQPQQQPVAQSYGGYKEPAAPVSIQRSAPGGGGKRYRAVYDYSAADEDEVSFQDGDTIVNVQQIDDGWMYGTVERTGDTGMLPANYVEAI
# UniProt P36776: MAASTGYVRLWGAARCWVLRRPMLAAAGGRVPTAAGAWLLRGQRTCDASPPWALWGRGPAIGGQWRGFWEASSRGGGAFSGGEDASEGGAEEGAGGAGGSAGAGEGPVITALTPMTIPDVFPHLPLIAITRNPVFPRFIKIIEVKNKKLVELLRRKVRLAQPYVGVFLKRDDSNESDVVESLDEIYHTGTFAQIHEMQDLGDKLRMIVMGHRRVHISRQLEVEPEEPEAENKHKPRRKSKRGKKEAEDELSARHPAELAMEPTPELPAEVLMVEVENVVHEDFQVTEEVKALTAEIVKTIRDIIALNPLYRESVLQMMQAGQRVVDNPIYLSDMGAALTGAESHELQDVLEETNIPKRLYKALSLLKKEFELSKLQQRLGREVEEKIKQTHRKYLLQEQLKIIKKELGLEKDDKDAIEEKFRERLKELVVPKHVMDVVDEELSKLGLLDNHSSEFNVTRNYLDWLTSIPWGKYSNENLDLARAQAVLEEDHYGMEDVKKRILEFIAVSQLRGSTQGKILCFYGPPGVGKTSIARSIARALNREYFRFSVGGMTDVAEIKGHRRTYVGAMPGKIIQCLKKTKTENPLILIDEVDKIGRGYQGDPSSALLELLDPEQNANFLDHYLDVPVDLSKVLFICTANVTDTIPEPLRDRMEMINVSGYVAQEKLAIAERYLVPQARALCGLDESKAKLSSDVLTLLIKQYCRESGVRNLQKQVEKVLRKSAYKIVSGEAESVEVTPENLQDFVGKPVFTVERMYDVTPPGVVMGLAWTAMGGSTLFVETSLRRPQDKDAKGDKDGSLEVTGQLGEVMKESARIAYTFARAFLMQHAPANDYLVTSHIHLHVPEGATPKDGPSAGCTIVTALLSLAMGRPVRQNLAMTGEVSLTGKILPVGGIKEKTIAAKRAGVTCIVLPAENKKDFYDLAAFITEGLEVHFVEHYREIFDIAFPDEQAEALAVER
# UniProt Q9H008: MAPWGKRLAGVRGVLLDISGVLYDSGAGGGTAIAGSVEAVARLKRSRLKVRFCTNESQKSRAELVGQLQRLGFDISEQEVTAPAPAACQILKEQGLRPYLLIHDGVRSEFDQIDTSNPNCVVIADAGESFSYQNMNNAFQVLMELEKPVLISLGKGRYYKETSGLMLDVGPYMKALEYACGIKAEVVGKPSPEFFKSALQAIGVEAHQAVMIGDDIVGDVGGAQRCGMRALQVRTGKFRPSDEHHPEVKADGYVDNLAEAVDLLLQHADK
# UniProt Q6P1Q0: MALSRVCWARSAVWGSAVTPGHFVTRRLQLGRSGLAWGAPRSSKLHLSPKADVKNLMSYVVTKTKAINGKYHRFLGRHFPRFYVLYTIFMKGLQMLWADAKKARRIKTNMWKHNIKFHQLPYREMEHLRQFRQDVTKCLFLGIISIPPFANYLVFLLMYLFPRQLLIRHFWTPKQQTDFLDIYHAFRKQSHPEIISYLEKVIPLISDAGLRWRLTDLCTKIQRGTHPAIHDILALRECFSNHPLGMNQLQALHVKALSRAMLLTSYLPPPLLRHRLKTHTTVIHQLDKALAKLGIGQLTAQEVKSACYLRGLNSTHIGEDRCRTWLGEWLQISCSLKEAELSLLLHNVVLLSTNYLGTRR
# UniProt Q12907: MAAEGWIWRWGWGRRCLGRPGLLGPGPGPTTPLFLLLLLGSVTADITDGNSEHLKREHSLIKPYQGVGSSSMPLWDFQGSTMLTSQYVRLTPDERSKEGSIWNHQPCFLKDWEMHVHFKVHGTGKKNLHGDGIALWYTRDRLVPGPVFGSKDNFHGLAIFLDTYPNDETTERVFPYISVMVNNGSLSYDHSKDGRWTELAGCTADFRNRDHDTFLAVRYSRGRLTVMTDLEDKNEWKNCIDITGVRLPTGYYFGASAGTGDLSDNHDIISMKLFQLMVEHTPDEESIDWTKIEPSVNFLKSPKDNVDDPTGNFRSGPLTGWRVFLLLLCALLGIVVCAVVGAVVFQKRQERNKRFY
# UniProt O95777: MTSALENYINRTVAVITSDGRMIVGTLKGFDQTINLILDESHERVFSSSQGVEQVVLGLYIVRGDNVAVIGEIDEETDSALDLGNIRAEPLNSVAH
# UniProt Q8TCA0: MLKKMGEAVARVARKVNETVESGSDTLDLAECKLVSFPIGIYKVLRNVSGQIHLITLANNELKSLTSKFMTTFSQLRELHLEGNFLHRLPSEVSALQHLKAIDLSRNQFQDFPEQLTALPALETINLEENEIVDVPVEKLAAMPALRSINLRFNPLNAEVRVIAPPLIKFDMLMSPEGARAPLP
# UniProt P17931, whole entry, looked up: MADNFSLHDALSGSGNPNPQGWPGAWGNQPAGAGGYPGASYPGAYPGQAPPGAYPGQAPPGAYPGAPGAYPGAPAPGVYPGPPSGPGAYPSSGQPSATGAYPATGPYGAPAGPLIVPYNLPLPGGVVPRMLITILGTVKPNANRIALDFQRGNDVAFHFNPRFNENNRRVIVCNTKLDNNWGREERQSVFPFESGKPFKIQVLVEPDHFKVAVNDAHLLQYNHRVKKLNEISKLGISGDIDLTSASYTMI
# UniProt P62310: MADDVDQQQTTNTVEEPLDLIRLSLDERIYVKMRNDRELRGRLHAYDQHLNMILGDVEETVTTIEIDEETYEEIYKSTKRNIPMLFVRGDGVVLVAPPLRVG
# UniProt Q9UFC0: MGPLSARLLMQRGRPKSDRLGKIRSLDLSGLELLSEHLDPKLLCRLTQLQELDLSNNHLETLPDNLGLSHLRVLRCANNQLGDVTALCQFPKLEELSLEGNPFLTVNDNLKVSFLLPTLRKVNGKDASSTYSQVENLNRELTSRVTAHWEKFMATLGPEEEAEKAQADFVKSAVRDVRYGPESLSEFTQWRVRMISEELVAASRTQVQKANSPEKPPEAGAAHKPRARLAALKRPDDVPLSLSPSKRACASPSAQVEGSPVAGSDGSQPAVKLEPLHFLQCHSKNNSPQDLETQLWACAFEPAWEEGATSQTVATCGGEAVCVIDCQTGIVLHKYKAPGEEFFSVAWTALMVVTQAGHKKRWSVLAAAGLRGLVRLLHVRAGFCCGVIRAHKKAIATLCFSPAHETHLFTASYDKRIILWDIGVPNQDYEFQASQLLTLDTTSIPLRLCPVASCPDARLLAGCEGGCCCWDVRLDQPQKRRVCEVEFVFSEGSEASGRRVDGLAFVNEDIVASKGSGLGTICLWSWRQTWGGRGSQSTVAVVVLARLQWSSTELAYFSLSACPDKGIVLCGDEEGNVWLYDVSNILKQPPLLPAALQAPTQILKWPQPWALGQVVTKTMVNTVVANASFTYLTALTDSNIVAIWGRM
# UniProt P53671: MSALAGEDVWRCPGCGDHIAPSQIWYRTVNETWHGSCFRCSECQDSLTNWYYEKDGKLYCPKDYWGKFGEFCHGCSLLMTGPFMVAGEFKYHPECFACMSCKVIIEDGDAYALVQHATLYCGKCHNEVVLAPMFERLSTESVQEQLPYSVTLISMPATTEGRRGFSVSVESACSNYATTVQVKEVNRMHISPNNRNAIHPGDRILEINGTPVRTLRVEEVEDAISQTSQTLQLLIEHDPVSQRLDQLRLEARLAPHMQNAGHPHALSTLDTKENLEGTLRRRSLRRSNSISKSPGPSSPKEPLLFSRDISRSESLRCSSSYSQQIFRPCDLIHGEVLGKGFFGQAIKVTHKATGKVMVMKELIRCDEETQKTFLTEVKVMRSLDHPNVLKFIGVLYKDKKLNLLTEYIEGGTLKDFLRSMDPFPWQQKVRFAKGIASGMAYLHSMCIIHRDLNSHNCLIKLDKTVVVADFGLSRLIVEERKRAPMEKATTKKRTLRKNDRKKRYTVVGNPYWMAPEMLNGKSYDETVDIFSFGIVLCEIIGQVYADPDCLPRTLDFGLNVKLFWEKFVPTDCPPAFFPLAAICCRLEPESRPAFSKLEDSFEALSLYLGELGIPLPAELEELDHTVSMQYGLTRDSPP
# UniProt Q9UGP4: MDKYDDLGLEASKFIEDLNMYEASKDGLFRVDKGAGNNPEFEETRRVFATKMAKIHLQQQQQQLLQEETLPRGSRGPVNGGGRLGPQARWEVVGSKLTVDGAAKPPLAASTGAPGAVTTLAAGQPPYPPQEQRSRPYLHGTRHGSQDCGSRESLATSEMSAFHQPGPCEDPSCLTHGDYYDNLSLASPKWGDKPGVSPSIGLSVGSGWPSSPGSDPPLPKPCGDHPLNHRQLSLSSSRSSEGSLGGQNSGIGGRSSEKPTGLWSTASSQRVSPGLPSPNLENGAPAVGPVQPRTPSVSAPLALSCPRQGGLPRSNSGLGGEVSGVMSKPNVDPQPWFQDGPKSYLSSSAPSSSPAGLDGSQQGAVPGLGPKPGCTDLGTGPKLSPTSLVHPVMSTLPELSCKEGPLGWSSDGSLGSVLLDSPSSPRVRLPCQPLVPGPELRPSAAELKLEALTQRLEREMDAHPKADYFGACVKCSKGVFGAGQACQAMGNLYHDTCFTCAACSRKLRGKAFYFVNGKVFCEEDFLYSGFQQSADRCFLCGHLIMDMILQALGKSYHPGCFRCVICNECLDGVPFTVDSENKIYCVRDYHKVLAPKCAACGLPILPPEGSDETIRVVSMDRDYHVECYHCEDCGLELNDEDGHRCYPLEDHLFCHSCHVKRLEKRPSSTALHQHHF
# UniProt Q6P9F7: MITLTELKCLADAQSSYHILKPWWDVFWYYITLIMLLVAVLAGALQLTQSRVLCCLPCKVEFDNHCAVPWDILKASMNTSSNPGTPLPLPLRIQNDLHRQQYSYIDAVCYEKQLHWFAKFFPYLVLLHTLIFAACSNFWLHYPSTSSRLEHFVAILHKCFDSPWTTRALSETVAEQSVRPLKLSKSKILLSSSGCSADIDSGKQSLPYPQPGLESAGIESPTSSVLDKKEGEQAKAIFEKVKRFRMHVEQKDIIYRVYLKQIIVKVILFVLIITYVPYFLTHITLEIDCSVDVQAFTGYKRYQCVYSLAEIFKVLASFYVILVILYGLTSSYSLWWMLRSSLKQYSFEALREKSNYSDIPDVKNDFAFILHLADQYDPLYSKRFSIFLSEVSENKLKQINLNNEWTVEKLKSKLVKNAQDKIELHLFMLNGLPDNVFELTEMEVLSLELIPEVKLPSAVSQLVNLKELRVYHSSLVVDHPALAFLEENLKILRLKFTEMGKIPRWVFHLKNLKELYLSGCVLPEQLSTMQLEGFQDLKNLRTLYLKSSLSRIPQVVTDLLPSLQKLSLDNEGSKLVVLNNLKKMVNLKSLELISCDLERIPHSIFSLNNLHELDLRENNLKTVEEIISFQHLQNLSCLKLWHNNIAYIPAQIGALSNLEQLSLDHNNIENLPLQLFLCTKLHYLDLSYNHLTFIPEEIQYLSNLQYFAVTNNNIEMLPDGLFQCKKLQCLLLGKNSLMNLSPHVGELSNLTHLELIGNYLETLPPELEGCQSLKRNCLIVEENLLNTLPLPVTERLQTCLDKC
# UniProt Q03252: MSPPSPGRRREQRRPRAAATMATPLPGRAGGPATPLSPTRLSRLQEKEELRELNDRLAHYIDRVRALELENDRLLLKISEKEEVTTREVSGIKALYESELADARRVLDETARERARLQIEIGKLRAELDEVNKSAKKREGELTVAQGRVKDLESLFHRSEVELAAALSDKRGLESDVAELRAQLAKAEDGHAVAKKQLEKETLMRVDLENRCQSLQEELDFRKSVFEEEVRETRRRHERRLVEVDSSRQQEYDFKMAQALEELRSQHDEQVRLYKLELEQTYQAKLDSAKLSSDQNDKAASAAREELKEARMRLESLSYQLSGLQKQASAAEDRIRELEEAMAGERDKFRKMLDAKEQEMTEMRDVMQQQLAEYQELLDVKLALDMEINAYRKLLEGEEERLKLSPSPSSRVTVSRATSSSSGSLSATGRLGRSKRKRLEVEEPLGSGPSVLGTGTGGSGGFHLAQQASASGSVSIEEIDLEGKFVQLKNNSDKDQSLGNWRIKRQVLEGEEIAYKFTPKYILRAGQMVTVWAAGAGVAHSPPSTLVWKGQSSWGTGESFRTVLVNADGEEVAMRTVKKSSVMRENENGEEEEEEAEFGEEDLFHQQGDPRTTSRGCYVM
# Legend:
# Assay in all cases: log2 fold change, soluble protein after heating vs DMSO (PISA); higher = thermal stabilisation; K562 lysate, 10 uM; active = over 0.2 and 3.5 SD of the protein, either way, in both replicates (recomputed)
# [1] = compound: CN1CC[C@H](c2c(O)cc(O)c3c(=O)cc(-c4ccccc4Cl)oc23)[C@H](O)C1 [alvocidib]
# Outline: (§1)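 Log-two fold change in thermal stability relative to solvent controls is reported from duplicates. For each sample, crude K562 extract from dounce-homogenised pellets in PBS pH 7.4 with 1 mM MgCl2, at 1 mg/mL protein, was treated with 10 μM compound for 30 min. Aliquots heated for 3 min across 48°C-58°C were pooled, brought to 0.5% NP-40 at 4°C and cleared at 21,000xg for 90 min. The supernatant was quantified by TMTpro 16plex LC-MS/MS with channel sums equalised.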
# [2] = compound: CN1CCc2c(c3ccccc3n2Cc2ccc(C(=O)NO)cc2)C1 [Tubastatin A]
# Outline: as §1
# [3] = compound: CNC(=O)C1=CC=CC=C1NC2=NC(=NC=C2Cl)NC3=C(C=C(C=C3)N4CCOCC4)OC
# Outline: as §1
# [4] = compound: CNC(=O)c1ccc(Nc2ncc(C(F)(F)F)c(NCc3nccnc3N(C)S(C)(=O)=O)n2)cc1 [defactinib]
# Outline: as §1
# [5] = compound: CNc1nc(-c2ccc3c(N)n[nH]c3c2)cc(N2C[C@@H](C(=O)NC3CCCCC3)CC[C@H]2C)n1
# Outline: as §1
# [6] = compound: COC(=O)N[C@@H](C)CNc1nccc(-c2cn(C(C)C)nc2-c2cc(Cl)cc(NS(C)(=O)=O)c2F)n1 [encorafenib]
# Outline: as §1
# [7] = compound: COC(=O)[C@H](CCSC)NC(=O)C1=C(C=C(C=C1)NC[C@H](CS)N)C2=CC=CC=C2
# Outline: as §1
# [8] = compound: COc1cc(Nc2ncc3c(n2)-c2ccc(Cl)cc2C(c2c(F)cccc2OC)=NC3)ccc1C(=O)O [alisertib]
# Outline: as §1
# [9] = compound: COc1cc2nc(-c3cc(F)ccc3O)nc(N[C@@H]3CNC[C@H]3C(C)(C)O)c2cc1OC
# Outline: as §1
# [10] = compound: COc1cc2ncnc(Nc3ccc(F)c(Cl)c3)c2cc1OCCCN1CCOCC1 [gefitinib]
# Outline: as §1
# [11] = compound: CS(=O)(=O)CCNCc1ccc(-c2ccc3ncnc(Nc4ccc(OCc5cccc(F)c5)c(Cl)c4)c3c2)o1 [lapatinib]
# Outline: as §1
# [12] = compound: CS(=O)(=O)N1CCN(Cc2cc3nc(-c4cccc5[nH]ncc45)nc(N4CCOCC4)c3s2)CC1 [pictilisib]
# Outline: as §1
# [13] = compound: C[C@@H](Oc1cc(-c2cnn(C3CCNCC3)c2)cnc1N)c1c(Cl)ccc(F)c1Cl [crizotinib]
# Outline: as §1
# [14] = compound: C[C@H](C1=CC=C(C=C1)C(=O)NC2=C3C=CNC3=NC=C2)N
# Outline: as §1
# [15] = compound: C[C@H](Nc1ncnc2nc[nH]c12)c1cc2cccc(Cl)c2c(=O)n1-c1ccccc1 [duvelisib]
# Outline: as §1
# [16] = compound: Cc1cc(Nc2cc(CN3CCOCC3)c3nc(C)c(Cc4ccc(Cl)cc4F)n3n2)n[nH]1 [gandotinib]
# Outline: as §1
# [17] = compound: Cc1cc(Nc2cc(N3CCN(C)CC3)nc(Sc3ccc(NC(=O)C4CC4)cc3)n2)n[nH]1 [tozasertib]
# Outline: as §1
# [18] = compound: Cc1ccc(-n2nc(C(C)(C)C)cc2NC(=O)Nc2ccc(OCCN3CCOCC3)c3ccccc23)cc1 [doramapimod]
# Outline: as §1
# [19] = compound: Cc1ccc(NC(=O)c2ccc(CN3CC[C@H](N(C)C)C3)c(C(F)(F)F)c2)cc1Nc1nccc(-c2cncnc2)n1 [bafetinib]
# Outline: as §1
# [20] = compound: Cc1cccc(CC(=O)N2CCc3c2ccc(-c2cn(C)c4ncnc(N)c24)c3F)n1
# Outline: as §1
Target,log2 fold change [1],log2 fold change [2],log2 fold change [3],log2 fold change [4],log2 fold change [5],log2 fold change [6],log2 fold change [7],log2 fold change [8],log2 fold change [9],log2 fold change [10],log2 fold change [11],log2 fold change [12],log2 fold change [13],log2 fold change [14],log2 fold change [15],log2 fold change [16],log2 fold change [17],log2 fold change [18],log2 fold change [19],log2 fold change [20]
LMBRD2 (UniProt Q68DH5),inactive: 0.059,inactive: 0.054,inactive: -0.002,inactive: 0.01,inactive: -0.011,inactive: 0.051,inactive: 0.027,inactive: 0.123,inactive: 0.003,inactive: 0.153,inactive: -0.037,inactive: -0.012,inactive: -0.056,inactive: 0.035,inactive: 0.018,inactive: 0.025,inactive: 0.016,inactive: 0.019,inactive: 0.002,inactive: -0.009
LASP1 (UniProt Q14847),inactive: 0.013,inactive: 0.062,inactive: -0.011,inactive: -0.022,inactive: 0.034,inactive: -0.056,inactive: -0.024,inactive: -0.007,inactive: -0.015,inactive: -0.004,inactive: 0.004,inactive: -0.005,inactive: 0.032,inactive: -0.017,inactive: 0.006,inactive: 0.045,inactive: -0.01,inactive: -0.018,inactive: 0.024,inactive: -0.014
LONP1 (UniProt P36776),inactive: 0.018,inactive: 0.027,inactive: -0.015,inactive: 0.014,inactive: 0.006,inactive: 0.006,inactive: -0.035,inactive: 0.005,inactive: -0.029,inactive: -0.002,inactive: -0.046,inactive: -0.002,inactive: 0.052,inactive: -0.016,inactive: -0.01,inactive: -0.018,inactive: 0.024,inactive: -0.039,inactive: 0.002,inactive: -0.033
LHPP (UniProt Q9H008),inactive: -0.017,inactive: 0.047,inactive: -0.068,inactive: -0.008,inactive: -0.023,inactive: -0.016,inactive: -0.097,inactive: 0.005,inactive: 0.052,inactive: -0.06,inactive: -0.045,inactive: -0.05,inactive: -0.015,inactive: -0.072,inactive: 0.023,inactive: 0.042,inactive: -0.101,inactive: 0.009,inactive: 0.027,inactive: -0.03
LETMD1 isoform 7 (UniProt Q6P1Q0),inactive: -0.013,inactive: 0.065,inactive: 0.085,inactive: -0.009,inactive: 0.018,inactive: -0.018,inactive: 0.027,inactive: 0.013,inactive: -0.121,inactive: -0.038,inactive: 0.015,inactive: -0.132,inactive: -0.115,inactive: -0.024,inactive: -0.051,inactive: 0.05,inactive: 0.021,inactive: 0.073,inactive: -0.142,inactive: 0.075
LMAN2 (UniProt Q12907),inactive: -0.02,inactive: 0.061,inactive: 0,inactive: 0.015,inactive: 0.008,inactive: 0.028,inactive: -0.035,inactive: 0.002,inactive: -0.003,inactive: 0.008,inactive: -0.031,inactive: -0.003,inactive: -0.005,inactive: -0.124,inactive: -0.01,inactive: 0.038,inactive: -0.024,inactive: 0,inactive: -0.016,inactive: 0.094
LSM8 (UniProt O95777),inactive: -0.012,inactive: 0.018,inactive: 0.007,inactive: 0.048,inactive: -0.028,inactive: 0.032,inactive: -0.076,inactive: -0.026,inactive: 0.005,inactive: 0.046,inactive: -0.005,inactive: -0.067,inactive: 0.02,inactive: -0.028,inactive: 0.002,inactive: 0.007,inactive: 0.037,inactive: 0.016,inactive: 0.176,inactive: 0.026
LRRC20 (UniProt Q8TCA0),inactive: 0.035,inactive: -0.006,inactive: 0.041,inactive: 0.047,inactive: 0.005,inactive: -0.012,inactive: -0.057,inactive: 0.047,inactive: -0.018,inactive: -0.126,inactive: 0.03,inactive: 0.09,inactive: -0.026,inactive: 0.032,inactive: 0.016,inactive: -0.082,inactive: -0.046,inactive: 0.08,inactive: -0.078,inactive: -0.068
LGALS3 (UniProt P17931),inactive: 0.044,inactive: 0.128,inactive: 0.005,inactive: 0.088,inactive: -0.373,inactive: 0.07,inactive: 0.247,inactive: 0.034,inactive: 0.003,inactive: 0.031,inactive: -0.044,inactive: 0.227,inactive: 0.016,inactive: 0.312,inactive: -0.367,inactive: -0.038,inactive: -0.132,inactive: 0.067,inactive: -0.064,inactive: -0.056
LSM3 (UniProt P62310),inactive: 0,inactive: 0.04,inactive: 0.03,inactive: 0.045,inactive: 0.011,inactive: -0.039,inactive: -0.014,inactive: 0.028,inactive: -0.011,inactive: -0.007,inactive: 0.03,inactive: -0.012,inactive: 0.012,inactive: 0.007,inactive: 0.05,inactive: 0,inactive: 0.006,inactive: 0.04,inactive: 0.018,inactive: 0.053
LRWD1 (UniProt Q9UFC0),inactive: 0.027,inactive: -0.2,inactive: -0.049,inactive: 0.059,inactive: -0.051,inactive: 0.01,inactive: 0.11,inactive: -0.001,inactive: 0.017,inactive: -0.024,inactive: -0.026,inactive: -0.049,inactive: -0.199,inactive: -0.011,inactive: 0,inactive: -0.102,inactive: -0.007,inactive: 0.029,inactive: -0.082,inactive: 0.019
LIMK2 isoform 3 (UniProt P53671),inactive: -0.002,inactive: 0.02,inactive: 0.068,inactive: -0.026,inactive: 0.102,inactive: 0.204,inactive: -0.189,inactive: 0.031,inactive: 0.033,inactive: -0.141,inactive: 0.029,inactive: 0.112,inactive: -0.138,active: 0.626,inactive: -0.035,inactive: -0.144,inactive: 0.01,inactive: 0.109,inactive: -0.108,inactive: -0.037
LIMD1 (UniProt Q9UGP4),inactive: -0.03,inactive: -0.057,inactive: 0.027,inactive: 0.011,inactive: -0.037,inactive: 0.032,inactive: -0.082,inactive: -0.018,inactive: -0.01,inactive: -0.04,inactive: 0.039,inactive: -0.003,inactive: -0.019,inactive: -0.015,inactive: -0.015,inactive: 0.004,inactive: -0.004,inactive: -0.017,inactive: -0.019,inactive: 0.04
LRCH3 (UniProt Q96II8),inactive: 0,inactive: -0.238,inactive: -0.003,inactive: -0.002,inactive: 0.069,inactive: 0.021,inactive: 0.045,inactive: 0.021,inactive: -0.012,inactive: -0.075,inactive: -0.008,inactive: -0.08,inactive: -0.114,inactive: -0.046,inactive: -0.012,inactive: 0.027,inactive: 0.012,inactive: 0.099,inactive: -0.104,inactive: 0.059
LRRC8B (UniProt Q6P9F7),inactive: -0.048,inactive: -0.043,inactive: 0.068,inactive: 0.001,inactive: 0.089,inactive: 0.104,inactive: 0.043,inactive: 0.05,inactive: 0.209,inactive: 0.017,inactive: -0.165,inactive: -0.088,inactive: -0.04,inactive: -0.125,inactive: 0.095,inactive: 0.053,inactive: 0.09,inactive: -0.001,inactive: 0.158,inactive: 0.026
LMNB2 (UniProt Q03252),inactive: -0.008,inactive: -0.044,inactive: 0.031,inactive: 0.029,inactive: -0.009,inactive: 0.034,inactive: -0.047,inactive: 0.03,inactive: -0.069,inactive: -0.001,inactive: 0.002,inactive: -0.041,inactive: 0.002,inactive: -0.028,inactive: 0.01,inactive: -0.022,inactive: 0.008,inactive: 0.03,inactive: -0.088,inactive: 0.007

# At a glance, some entries already given.
Target,log2 fold change [1],log2 fold change [2],log2 fold change [3],log2 fold change [4],log2 fold change [5],log2 fold change [6],log2 fold change [7],log2 fold change [8],log2 fold change [9],log2 fold change [10],log2 fold change [11],log2 fold change [12],log2 fold change [13],log2 fold change [14],log2 fold change [15],log2 fold change [16],log2 fold change [17],log2 fold change [18],log2 fold change [19],log2 fold change [20]
LHPP (UniProt Q9H008),inactive: -0.017,inactive: 0.047,inactive: -0.068,inactive: -0.008,inactive: -0.023,inactive: -0.016,inactive: -0.097,inactive: 0.005,inactive: 0.052,inactive: -0.06,inactive: -0.045,inactive: -0.05,inactive: -0.015,inactive: -0.072,inactive: 0.023,inactive: 0.042,inactive: -0.101,inactive: 0.009,inactive: 0.027,inactive: -0.03
LETMD1 isoform 7 (UniProt Q6P1Q0),inactive: -0.013,inactive: 0.065,inactive: 0.085,inactive: -0.009,inactive: 0.018,inactive: -0.018,inactive: 0.027,inactive: 0.013,inactive: -0.121,inactive: -0.038,inactive: 0.015,inactive: -0.132,inactive: -0.115,inactive: -0.024,inactive: -0.051,inactive: 0.05,inactive: 0.021,inactive: 0.073,inactive: -0.142,inactive: 0.075
LMAN2 (UniProt Q12907),inactive: -0.02,inactive: 0.061,inactive: 0,inactive: 0.015,inactive: 0.008,inactive: 0.028,inactive: -0.035,inactive: 0.002,inactive: -0.003,inactive: 0.008,inactive: -0.031,inactive: -0.003,inactive: -0.005,inactive: -0.124,inactive: -0.01,inactive: 0.038,inactive: -0.024,inactive: 0,inactive: -0.016,inactive: 0.094
LSM8 (UniProt O95777),inactive: -0.012,inactive: 0.018,inactive: 0.007,inactive: 0.048,inactive: -0.028,inactive: 0.032,inactive: -0.076,inactive: -0.026,inactive: 0.005,inactive: 0.046,inactive: -0.005,inactive: -0.067,inactive: 0.02,inactive: -0.028,inactive: 0.002,inactive: 0.007,inactive: 0.037,inactive: 0.016,inactive: 0.176,inactive: 0.026

# Source: the supplement of paper PMC10849652
